We go through 42 sequences from article PMC7819943, “Rice protein-binding microarrays: a tool to detect cis-acting elements near promoter regions in rice”.

Protein sequences, listed by entry. Tags and fused reporters are not part of them.
UniProt Q0JBA9, entry or part of it: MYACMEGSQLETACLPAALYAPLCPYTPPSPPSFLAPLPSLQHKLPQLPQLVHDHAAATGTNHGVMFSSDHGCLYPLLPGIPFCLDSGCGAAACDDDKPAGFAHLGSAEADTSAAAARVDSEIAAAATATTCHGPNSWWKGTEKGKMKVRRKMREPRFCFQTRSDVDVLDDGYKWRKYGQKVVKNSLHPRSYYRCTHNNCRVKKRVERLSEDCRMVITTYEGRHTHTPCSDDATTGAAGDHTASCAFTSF

The other results are listed elsewhere or left out.

The target of the assay is OsWRKY34 (Oryza sativa, UniProt Q0JBA9 1-250). In words: protein-binding microarray (RPBM); PBS, 2% BSA, 51.3 ng/ul salmon testes DNA, 50 uM zinc acetate, 200 nM TF, 25 C, 1 h; high values mean tight binding. The settings on record: protein: recombinant; tags: N-terminal polyhistidine and DsRed monomer fusion (pET32a); label: CyDye5-dUTP incorporated in the synthesized complementary strand; 3' TTTTT single-stranded linker to array surface; dsDNA, one strand shown. The method in brief:
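The binding signal is fluorescence intensity per array feature (arbitrary units). Readings came from an Axon 4000B scanner after a washed, 2% BSA-blocked, double-stranded custom Agilent array had been incubated for 1 h at 25 °C with 200 nM protein and 50 µM zinc acetate. The protein was a Ni–NTA-purified transcription factor fused N-terminally to polyhistidine and DsRed, expressed in E. coli BL21-CodonPlus.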
For the sequence “GGTGGTGCGCGAGCGTCGGCGGTCGGCGGGAGGGCGGGAGCGGAGTCACCTAGTGCAG”, the binding signal was 9180 fluorescence intensity (a.u.).
Take “CACTTCGCGCCGCCGCCCTCCGCCTCGCCGCCGCCAGAGGCGGAGTCACCTAGTGCAG”: the binding signal is 8140 fluorescence intensity (a.u.).
The result for “TCTCCGCTGCTCCGATCCACCGTCTCCGCCGCTGCTTGAACGGAGTCACCTAGTGCAG” reads 9940 fluorescence intensity (a.u.); that for “GGTTGTATCGTTGGAAGGGATGTCCTTATCATCTTTGATCCGGAGTCACCTAGTGCAG”, 10100 fluorescence intensity (a.u.).
“CACAACTGCACGTATTGCGTCGCCAATGTCATCGCTAACTCGGAGTCACCTAGTGCAG”: the binding signal is 8730 fluorescence intensity (a.u.).
For “TACAGCTCCACTTCTCGAATCCTTGCACCACTAGTCTCTCCGGAGTCACCTAGTGCAG”, the binding signal was 8100 fluorescence intensity (a.u.).
In the case of “AAAAACTCATAAAAACATGTGCGATATTTTTCTTTCATTTCGGAGTCACCTAGTGCAG” it was 8380 fluorescence intensity (a.u.).
With “GAGATCCTAGGTCCAAAAGAAGAGAGGGTCGTGACGGTGCCGGAGTCACCTAGTGCAG”, the binding signal is 14700 fluorescence intensity (a.u.).
For “ACCTTGATTTTGTTGACATAATGTGCGAGGTATTGAGCATCGGAGTCACCTAGTGCAG”, the binding signal is 8350 fluorescence intensity (a.u.).
As for “TCACATTGCAGCTACATTCCATGCTTCTGCTCAAAGTTTTCGGAGTCACCTAGTGCAG”, the binding signal was 9540 fluorescence intensity (a.u.).
The result for “ATCTCTCTCATCCAATTCCTGTGTTTTTCCTACGGTCCAACGGAGTCACCTAGTGCAG” reads 8170 fluorescence intensity (a.u.).
In the case of “CCGCCCACCGCCGGGCTGCCGCTTCTCACGGCCATTCCTCCGGAGTCACCTAGTGCAG”, the binding signal is 8650 fluorescence intensity (a.u.).
On to “ATGCTCGCCCGCCGCCGACGTCGCTCTCGCCCGCCGTCGCCGGAGTCACCTAGTGCAG”, for which the binding signal is 9060 fluorescence intensity (a.u.).
Turning to “ATATAAATTAAAGTTGCTTTGACTTTTCTCTTATTCAAATCGGAGTCACCTAGTGCAG”, the binding signal is 9550 fluorescence intensity (a.u.).
On to “TTTAAGTTTGGTTTTGGCGTCTTATGTGTAATGTAATCAACGGAGTCACCTAGTGCAG”, for which the binding signal was 8230 fluorescence intensity (a.u.).
The result for “TTGGTGGACATGACAGGTAAAACAAATTGGGGCGAATTCTCGGAGTCACCTAGTGCAG” reads 8070 fluorescence intensity (a.u.); that for “GTTCTCATCCCTCCCATTTGATTCTAGGCGATTTCTTTTTCGGAGTCACCTAGTGCAG”, 9070 fluorescence intensity (a.u.); that for “TAAGACCCCGTTTCGTCGTTACTGTATTTTTGGATTTCCTCGGAGTCACCTAGTGCAG”, 8330 fluorescence intensity (a.u.).
“CCTTCCGTTTCTCCGATCCTCGTGTGGGCGATGAATATATCGGAGTCACCTAGTGCAG”: the binding signal was 9490 fluorescence intensity (a.u.).
Take “TGTTGTGTGTTTGATGCAGGTGAGGCAGGAACTCTTGTAACGGAGTCACCTAGTGCAG”: the binding signal is 9620 fluorescence intensity (a.u.).
On to “CACGTCGGCATCCGCAGCTTCAACTTTGGCTTCACTATCACGGAGTCACCTAGTGCAG”, for which the binding signal is 8430 fluorescence intensity (a.u.).
On to “ACTACTTAAGTTTCCCAAACAGGACTAGTTTGACCTACTTCGGAGTCACCTAGTGCAG”, for which the binding signal is 8640 fluorescence intensity (a.u.).
In the case of “CTCCACCACTCATTGCCCTCACTCTCCTCTCTCTCTCTCTCGGAGTCACCTAGTGCAG” it was 9150 fluorescence intensity (a.u.); in that of “GTCTTGAGCGACCAAAGTTGGACTTTCTTCATTACATATTCGGAGTCACCTAGTGCAG”, 8700 fluorescence intensity (a.u.); in that of “TGGCAACTTCCTTATTTTTCATTACCATATTTCCCAAACTCGGAGTCACCTAGTGCAG”, 9390 fluorescence intensity (a.u.).
In the case of “TTCCCCGACCGTTTCTGCTCGTTTTCGAAAAAAATAATAACGGAGTCACCTAGTGCAG” it was 8170 fluorescence intensity (a.u.); in that of “AGCTGGCGGCTGGCGGGTGGTGGTGGTGGCTGGCGGCGGGCGGAGTCACCTAGTGCAG”, 13900 fluorescence intensity (a.u.).
Consider “TTCCGAGTTCCGACCCGCGCCGCCACGCCACGCTACATCCCGGAGTCACCTAGTGCAG”, for which the binding signal was 8170 fluorescence intensity (a.u.).
For “CCCACCCGCGCAACCGCCTCCTCCTCGCCGCCTCCGAGCTCGGAGTCACCTAGTGCAG”, the binding signal is 11600 fluorescence intensity (a.u.).
In the case of “ACGTGGCTGGTTTAATTAGGTCCTTGTCCCACGTGATATTCGGAGTCACCTAGTGCAG” it was 9250 fluorescence intensity (a.u.); in that of “GCGCGCACGCATTCGCCTCGACGCCGCATACTCGCGTCCACGGAGTCACCTAGTGCAG”, 8990 fluorescence intensity (a.u.).
The result for “TGTACTGTACGTTCTCTTTGCGCGCACTGCACCATTTGTTCGGAGTCACCTAGTGCAG” reads 8400 fluorescence intensity (a.u.).
Take “TCTCCGCATCACTCACTACTCAACTAGCACTACTACTAGTCGGAGTCACCTAGTGCAG”: the binding signal was 9470 fluorescence intensity (a.u.).
For “ACCCAACCGACTCGCACTCGTCGTCGTCGTCCCCATCTGGCGGAGTCACCTAGTGCAG”, the binding signal is 8140 fluorescence intensity (a.u.).
With “ACGTTGCTTAATCTCCTTTAATTTCTTCTTTTTTTTCTCTCGGAGTCACCTAGTGCAG”, the binding signal is 10800 fluorescence intensity (a.u.).
With “TTCCACCGTCTCGTTTCGCAGACGACTCCTGCTCTGCCTCCGGAGTCACCTAGTGCAG”, the binding signal is 10200 fluorescence intensity (a.u.).
For “ACCACCACCACCACCTCCACCACCACCGCGCGCACCGGCACGGAGTCACCTAGTGCAG”, the binding signal is 8730 fluorescence intensity (a.u.).
For the sequence “TTTGTGCATTTATTATTATTATTCTTGTTTTTCTTTTTTTCGGAGTCACCTAGTGCAG”, the binding signal was 8340 fluorescence intensity (a.u.).
For “GGCTCCCGACGCTCACGCGCGCTCCGTGCTCTGCGCCTCCCGGAGTCACCTAGTGCAG”, the binding signal is 8190 fluorescence intensity (a.u.).
For the sequence “TTGTATCTAATTCGGTTTCTTTTGATTTGCAGGTTTAGGTCGGAGTCACCTAGTGCAG”, the binding signal was 8140 fluorescence intensity (a.u.).
In the case of “AAAACCTTGATTATTCTCGCTGCGTGTATCCCATTCCCACCGGAGTCACCTAGTGCAG” it was 9230 fluorescence intensity (a.u.); in that of “TGGTATTCTTATCATGTCCATTGTTGACTTGCTCCTCAGACGGAGTCACCTAGTGCAG”, 9770 fluorescence intensity (a.u.).
